Measurements as given in US20140199714A1, “METHOD FOR DETECTING CANCER CELLS METASTASIZING INTO SENTINEL LYMPH NODE” (SHINSHU UNIVERSITY, priority 2008, published 2014).

Test: ATP assay (luciferin-luciferase)

In the case of `Nc1ncnc2c1ncn2[C@@H]1O[C@H](COP(=O)(O)OP(=O)(O)OP(=O)(O)O)[C@@H](O)[C@H]1O` [ATP], the “Relative Luminescence Intensity” value (culture medium with ATP 10^−6 M) was 67462.0 ± 947.1, the “Relative Luminescence Intensity” value (culture medium with ATP 10^−7 M) was 9679.0 ± 1193.2 and the “Relative Luminescence Intensity” value (culture medium with ATP 10^−8 M) was 1138.5 ± 47.5.
